According to US8865704B2, “Wnt pathway antagonists” (Siena Biotech S.p.A., priority 2009, dated 2014):
Some results were stated once for a whole list of compounds, not compound by compound. At least one compound was matched to its structure with a doubt left.

What follows are compounds tested on Wnt-independent Renilla Luciferase (TA-Renilla) reporter in DBTRG-05MG glioblastoma cell line (assay: Renilla read out (TA-Renilla, Wnt-independent reporter; internal control for cell number and toxicity)). Conditions: DBTRG-05MG cells, 24 hours after compound addition.
Type: cell-based

**Q.** How did the “effect in the renilla read out” value turn out when `CC(C)C(=O)N1CCN(C(=O)[C@H]2CC[C@H](Cn3c(=O)[nH]c4ccccc4c3=O)CC2)CC1` [Example 30] was run?
**A.** Its value is “negligible effect”.

**Q.** With `CCN1CCN(C(=O)[C@H]2CC[C@H](Cn3c(=O)[nH]c4ccc(OC)cc4c3=O)CC2)CC1=O` [Example 87] as the compound, how does the “effect in the renilla read out” value read?
**A.** The value was “negligible effect”.

**Q.** How did the “effect in the renilla read out” value turn out when `COc1ccc2[nH]c(=O)n(C[C@H]3CC[C@H](C(=O)N4CCN(C(=O)C5CC5)CC4)CC3)c(=O)c2c1` [Example 75] was run?
**A.** Its value is “negligible effect”.

**Q.** Which “effect in the renilla read out” value does the source give for `CC(C)C(=O)N1CCN(C(=O)[C@H]2CC[C@H](Cn3c(=O)[nH]c4cccc(Cl)c4c3=O)CC2)CC1` [Example 51] here?
**A.** Its value is “negligible effect”.

**Q.** How did the “effect in the renilla read out” value turn out when `CN1C(=O)N(C[C@H]2CC[C@H](C(=O)N3CCN(c4ccccc4)CC3)CC2)Cc2ccccc21` [Example 46] was run?
**A.** The value was “negligible effect”.

**Q.** `O=C(C1CCC(Cn2c(=O)[nH]c3ccccc3c2=O)CC1)N1CCN(C(=O)C2CC2)CC1` (stereo not drawn) [Example 47] was tested. Which “effect in the renilla read out” value did it give?
**A.** Its value is “negligible effect”.

**Q.** Which “effect in the renilla read out” value does the source give for `CC(=O)N1CCN(C(=O)[C@H]2CC[C@H](CN3C(=O)Cc4ccccc4C3=O)CC2)CC1` [Example 12, 2-[trans-4-(4-Acetyl-piperazine-1-carbonyl)-cyclohexylmethyl]-4H-isoquinoline-1,3-dione] here?
**A.** Its value is “negligible effect”.

**Q.** Which “effect in the renilla read out” value does the source give for `COc1ccc2[nH]c(=O)n(C[C@H]3CC[C@H](C(=O)N4CCN(CC5CC5)C(=O)C4)CC3)c(=O)c2c1` [Example 105] here?
**A.** Its value is “negligible effect”.

**Q.** With `Cn1c(=O)n(C[C@H]2CC[C@H](C(=O)N3CCN(C(=O)C4CC4)CC3)CC2)c2cc(C(F)(F)F)ccc21` [Example 163] as the compound, how does the “effect in the renilla read out” value read?
**A.** The value was “negligible effect”.

**Q.** For `COc1ccc2[nH]c(=O)n(C[C@H]3CC[C@H](C(=O)N4CCN(C)C(=O)C4)CC3)c2c1` [Example 160], which “effect in the renilla read out” value is on record?
**A.** The value was “negligible effect”.

**Q.** Which “effect in the renilla read out” value does the source give for `COc1ccc2c(c1)c(=O)n(C[C@H]1CC[C@H](C(=O)N3CCN(C)C(=O)C3)CC1)c(=O)n2C` [Example 92] here?
**A.** Its value is “negligible effect”.

**Q.** `Cc1ccc2[nH]c(=O)n(C[C@H]3CC[C@H](C(=O)N4CCN(C(=O)C5CC5)CC4)CC3)c2c1` [Example 95] was tested. Which “effect in the renilla read out” value did it give?
**A.** Its value is “negligible effect”.

**Q.** Which “effect in the renilla read out” value does the source give for `COc1ccc2c(c1)c(=O)n(C[C@H]1CC[C@H](C(=O)N3CCN(C(=O)C4CCC4)CC3)CC1)c(=O)n2C` [Example 129] here?
**A.** The value was “negligible effect”.

**Q.** With `COc1cc2c(cc1Cl)n(C[C@H]1CC[C@H](C(=O)N3CCOCC3)CC1)c(=O)n2C` [Example 186] as the compound, how does the “effect in the renilla read out” value read?
**A.** The value was “negligible effect”.

**Q.** Which “effect in the renilla read out” value does the source give for `COc1ccc2c(c1)c(=O)n(C[C@H]1CC[C@H](C(=O)N3CCN(C(C)=O)CC3)CC1)c(=O)n2C(F)F` [Example 179] here?
**A.** The value was “negligible effect”.

**Q.** How did the “effect in the renilla read out” value turn out when `COc1ccc2c(c1)n(C[C@H]1CC[C@H](C(=O)N3CCN(C(=O)C4CCCO4)CC3)CC1)c(=O)n2C` (stereo partly drawn) [Example 192] was run?
**A.** Its value is “negligible effect”.

**Q.** Which “effect in the renilla read out” value does the source give for `COc1ccc2[nH]c(=O)n(C[C@H]3CC[C@H](C(=O)N4CCN(C(=O)C5CC5)C[C@H]4C)CC3)c(=O)c2c1` [Example 126] here?
**A.** Its value is “negligible effect”.

**Q.** For `COc1ccc(N2CCN(C(=O)C3CCC(Cn4c(=O)[nH]c5ccccc5c4=O)CC3)CC2)cc1` (stereo not drawn) [Example 28], which “effect in the renilla read out” value is on record?
**A.** Its value is “negligible effect”.

**Q.** Which “effect in the renilla read out” value does the source give for `COC(=O)N1CCN(C(=O)[C@H]2CC[C@H](Cn3c(=O)c4cc(OC)ccc4n(C)c3=O)CC2)CC1` [Example 175] here?
**A.** Its value is “negligible effect”.

**Q.** With `COc1ccc2[nH]c(=O)n(C[C@H]3CC[C@H](C(=O)N4CCN(c5cccc(OC)n5)CC4)CC3)c(=O)c2c1` [Example 140] as the compound, how does the “effect in the renilla read out” value read?
**A.** Its value is “negligible effect”.

**Q.** Which “effect in the renilla read out” value does the source give for `COc1ccc2c(c1)c(=O)n(C[C@H]1CC[C@H](C(=O)Nc3ccon3)CC1)c(=O)n2C` [Example 193] here?
**A.** Its value is “negligible effect”.

**Q.** `COCC(=O)N1CCN(C(=O)[C@H]2CC[C@H](Cn3c(=O)[nH]c4ccc(OC)cc4c3=O)CC2)[C@@H](C)C1` [Example 133] was tested. Which “effect in the renilla read out” value did it give?
**A.** The value was “negligible effect”.

**Q.** With `CC(C)(C)NC(=O)N1CCN(C(=O)[C@H]2CC[C@H](Cn3c(=O)[nH]c4ccccc4c3=O)CC2)CC1` [Example 34] as the compound, how does the “effect in the renilla read out” value read?
**A.** The value was “negligible effect”.

**Q.** For `O=C(CCC1CCCC1)N1CCN(C(=O)[C@H]2CC[C@H](Cn3c(=O)[nH]c4ccccc4c3=O)CC2)CC1` [Example 32], which “effect in the renilla read out” value is on record?
**A.** Its value is “negligible effect”.

**Q.** With `CCOc1ccc2c(c1)c(=O)n(C[C@H]1CC[C@H](C(=O)N3CCN(C(=O)C4CCCC4)CC3)CC1)c(=O)n2C` [Example 199] as the compound, how does the “effect in the renilla read out” value read?
**A.** Its value is “negligible effect”.

**Q.** Which “effect in the renilla read out” value does the source give for `CC(C)C(=O)N1CCN(C(=O)[C@H]2CC[C@H](Cn3c(=O)[nH]c4cccc(F)c4c3=O)CC2)CC1` [Example 54] here?
**A.** The value was “negligible effect”.

**Q.** For `CC(C)C(=O)N1CCN(C(=O)[C@H]2CC[C@H](CN3C(=O)CC(c4ccccc4)NC3=O)CC2)CC1` (stereo partly drawn) [Example 6, 3-[trans-4-(4-Isobutyryl-piperazine-1-carbonyl)-cyclohexylmethyl]-6-phenyl-dihydro-pyrimidine-2,4-dione], which “effect in the renilla read out” value is on record?
**A.** The value was “negligible effect”.

**Q.** How did the “effect in the renilla read out” value turn out when `O=C(C1CC1)N1CCN(C(=O)[C@H]2CC[C@H](Cn3c(=O)[nH]c4cc(C(F)(F)F)ccc43)CC2)CC1` [Example 112] was run?
**A.** The value was “negligible effect”.

**Q.** How did the “effect in the renilla read out” value turn out when `O=C(C1CC1)N1CCN(C(=O)[C@H]2CC[C@H](Cn3c(=O)c4ccccc4n(CCF)c3=O)CC2)CC1` [Example 79] was run?
**A.** The value was “negligible effect”.

**Q.** Which “effect in the renilla read out” value does the source give for `CC(=O)N1CCN(C(=O)[C@H]2CC[C@H](Cn3c(=O)[nH]c4ccccc4c3=O)CC2)CC1` [Example 33] here?
**A.** The value was “negligible effect”.

**Q.** `COCC(=O)N1CCN(C(=O)[C@H]2CC[C@H](Cn3c(=O)c4cc(OC)ccc4n(C)c3=O)CC2)C[C@@H]1C` [Example 149] was tested. Which “effect in the renilla read out” value did it give?
**A.** The value was “negligible effect”.

**Q.** For `COc1ccc2[nH]c(=O)n(C[C@H]3CC[C@H](C(=O)N4CCN(C(=O)C5CC5)CC4)CC3)c2n1` [Example 158], which “effect in the renilla read out” value is on record?
**A.** The value was “negligible effect”.

**Q.** `COc1ccc2[nH]c(=O)n(C[C@H]3CC[C@H](C(=O)N4CCN(C(=O)C5CC5(F)F)CC4)CC3)c(=O)c2c1` (stereo partly drawn) [Example 97] was tested. Which “effect in the renilla read out” value did it give?
**A.** Its value is “negligible effect”.

**Q.** How did the “effect in the renilla read out” value turn out when `COc1ccc2[nH]c(=O)n(C[C@H]3CC[C@H](C(=O)N4CCN(C(=O)[C@H]5CCCO5)CC4)CC3)c(=O)c2c1` [Example 109] was run?
**A.** The value was “negligible effect”.

**Q.** How did the “effect in the renilla read out” value turn out when `CC(=O)N1CCN(C(=O)[C@H]2CC[C@H](Cn3c(=O)n(C)c4ccc(Cl)cc43)CC2)CC1` [Example 180] was run?
**A.** Its value is “negligible effect”.

**Q.** Which “effect in the renilla read out” value does the source give for `O=C(CC1CCCCC1)N1CCN(C(=O)[C@H]2CC[C@H](Cn3c(=O)[nH]c4ccccc4c3=O)CC2)CC1` [Example 59] here?
**A.** Its value is “negligible effect”.
